Experimental data: PubChem BioAssay AID652272 (Drosophila RNAi Screening Center, 2013)

- Aim: 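Genes whose knock-down decreases or increases Hedgehog reporter output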 (primary screen)
- Cell system: Drosophila clone 8 (Cl8) cells
- Reagent: long dsRNA against Drosophila genes
- Detection: 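Firefly light from a Hedgehog-responsive ptc promoter reporter and Renilla reference light, both read on a plate reader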
- Reading the numbers: firefly Hh reporter signal: higher = more ptc reporter light; Renilla reference signal: higher = more Renilla control light
- Hit rule: 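Called a hit if the two-replicate mean z-score lies below -2 or above +3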
- Calls: active = hit: reporter lowered or raised; inactive = not a hit
In all, the deposit lists about 21,000 reagents; below is an unselected part of those that have a named target and a result. Of all reagents, 503 (2.4%) got an active call. 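Raw plate light values, not normalised; calls rest on replicate z-scores that were not deposited; hits include reporter decreases as well as increases.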 A plus sign joins genes that one reagent is predicted to hit. Not given: the amount of reagent, the time to read-out.

predicted target	dsRNA	firefly Hh reporter signal, replicate 1	firefly Hh reporter signal, replicate 2	firefly Hh reporter signal, replicate 3	Renilla reference signal, replicate 1	Renilla reference signal, replicate 2	Outcome
CG30109 + CG30108	DRSC05674	89776	2.02e5		2772	7826	inactive
CG15578	DRSC18066	82210	1.91e5		2796	7193	inactive
CG9626	DRSC16525	97385	72043		3553	2424	inactive
DEF8	DRSC09840	1.30e5	61265		4706	2672	inactive
Kah	DRSC07887	1.31e5	2.46e5		3697	11584	inactive
Kah	DRSC08515	1.07e5	57120		3251	4752	inactive
CG16734	DRSC15143	72266	62344		2728	1714	inactive
CG34183	DRSC01099	5.94e5	3.17e5		28568	13286	inactive
ND-13A	DRSC03110	1.56e5	79579		3792	6858	inactive
Dlip3	DRSC07401	1.31e5	47856		3488	3575	inactive
CG14655	DRSC12241	4.32e5	85909		3808	3808	inactive
CG42512 + CG32573	DRSC19532	94760	2.03e5		3706	8709	inactive
CG42512 + CG32573	DRSC19906	1.87e5	1.51e5		3040	4002	inactive
CG13044	DRSC09925	1.35e5			3034	4011	inactive
CG13068	DRSC09951	2.02e5			8224	6048	inactive
Wdr37	DRSC14500	1.02e5	82576		4317	3419	inactive
CG14742	DRSC14962	1.30e5	1.75e5		3781	4326	inactive
pen-2	DRSC05722	1.21e5	2.84e5		3805	11865	inactive
CG10738	DRSC09792	52482	35297	40544	4172	3171	inactive
CG42700	DRSC06292	21462	6502		946	800	active
CG42700	DRSC06293	97808	37533		2412	3194	inactive
CG2321	DRSC15439	1.30e5	73963		3035	2075	inactive
CG5418	DRSC02857	1.27e5	82679		3120	7682	inactive
Syn	DRSC16876	97057	1.23e5		2987	3520	inactive
Sod1	DRSC11286	49264	61488	65068	5602	4842	inactive
cg	DRSC07650	19061	3372		1366	637	active
CG4572	DRSC15603	86793	68388		3891	2816	inactive
PGRP-SC1a	DRSC06482	98121	51239		2184	4130	inactive
CG43691	DRSC06650	1.09e5	99277		2636	6600	inactive
CG43691	DRSC06651	83908	73984		1915	5604	inactive
CG15247	DRSC17976	88133	2.00e5		2762	7560	inactive
CG30350	DRSC07690	1.05e5	67706		2855	5491	inactive
toc	DRSC00169	5.78e5	3.00e5		30757	11139	inactive
toc	DRSC00171	4.42e5	1.50e5		24423	6476	inactive
toc	DRSC00842	60312	63041		2898	2912	inactive
Lsm12a	DRSC19702	1.08e5	3.52e5		2264	13318	inactive
Kap-alpha1	DRSC11356	94246	96134		3723	3424	inactive
CG34289	DRSC13625	49584	2.59e5		13057	5738	inactive
Oli	DRSC02866	72001	1.06e5		2840	3591	inactive
Zip42C.2	DRSC05004	1.59e5	71533		3424	3666	inactive
CG31268	DRSC13203	50947	1.67e5		8589	2743	inactive
Nubp2	DRSC11758	1.17e5	98196		4721	2944	inactive
CG2126	DRSC15418	84376	2.11e5		2934	6747	inactive
CG43074	DRSC08044	98759	2.64e5		2506	9954	inactive
Taz	DRSC07704	1.29e5	6.77e5	1.10e5	3298	42636	inactive
Or85b	DRSC16765	63040	1.07e5		1243	3308	inactive
Mi-2 + Su(Tpl)	DRSC09640	3.40e5			7290		inactive
Nrx-1	DRSC16184	1.16e5	94004		3435	3098	inactive
Dic4	DRSC10317	1.33e5			3322	2885	inactive
CG31792	DRSC02604	72337	40378		1980	3741	inactive
IntS14	DRSC00668	1.07e5	64616		5844	3909	inactive
Hmgcl	DRSC02051	97686	61440		2459	5450	inactive
bin	DRSC10332	36535	48066		5632	3617	inactive
ara	DRSC11322	57744	11540	36064	2000	2807	inactive
Mur29B	DRSC01018	7.50e5	3.27e5		38022	13386	inactive
Mur29B	DRSC02376	1.65e5	94938		4231	7168	inactive
bin3	DRSC04919	1.17e5	50022		2722	3812	inactive
CG7728	DRSC10907	69108	41268		3376	2305	inactive
CG11162	DRSC19391	1.84e5	3.96e5		5168	15433	inactive
CG15196	DRSC19643	85280	3.09e5		2985	11008	inactive
Not10	DRSC14129	1.05e5	98045		4720	3894	inactive
CG11791	DRSC14391	1.36e5	77748		5128	1511	inactive
BEAF-32	DRSC05927	70678	59292		3613	2672	inactive
Gp93	DRSC15827	96809	87059		1888	2805	inactive
Spag1	DRSC15331	1.03e5	91744		3653	2568	inactive
Npc2b	DRSC15464	71540	91185		2456	1939	inactive
CG6878	DRSC10737	83980			2120	2307	inactive
Mcr	DRSC03366	99187	33404		4144	1091	inactive
CG17290	DRSC06662	91609	44941		2553	3713	inactive
Sap-r	DRSC16849	1.57e5	9.31e5	1.46e5	2988	5872	inactive
sp3	DRSC16354	7.51e5	1.60e5		44985	3060	inactive
Cyt-b5	DRSC07392	1.15e5	96269		3867	3243	inactive
CG9582	DRSC03267	66547	48293		1504	4183	inactive

Individual results from the entries so far.
Result of CG9626 [DRSC16525] under “firefly Hh reporter signal, replicate 1”: 97385
cg [DRSC07650], Renilla reference signal, replicate 1 → 1366
Entry for CG43691 [DRSC06650] under “Outcome”: inactive
For “Renilla reference signal, replicate 1”, Dic4 [DRSC10317] has 3322
